# Inconclusive means that the source gave no clear call. Such entries were picked first, then a sample of the others. For some of these results: Potencies of inconclusive entries are doubtful fits and often do not repeat. Active and inactive are the calls of the source. How the source made its calls: active means hit-call score of the fitted dose curve at least 0.9, where 1 is the maximum; inconclusive means response in the unintended direction; inactive means score below 0.9.
# By UniProt entry, the sequences of proteins in these tests, tags left out. Where a name states a change or a piece, a line headed by the entry shows the natural chain unless it says otherwise.
# UniProt P10275: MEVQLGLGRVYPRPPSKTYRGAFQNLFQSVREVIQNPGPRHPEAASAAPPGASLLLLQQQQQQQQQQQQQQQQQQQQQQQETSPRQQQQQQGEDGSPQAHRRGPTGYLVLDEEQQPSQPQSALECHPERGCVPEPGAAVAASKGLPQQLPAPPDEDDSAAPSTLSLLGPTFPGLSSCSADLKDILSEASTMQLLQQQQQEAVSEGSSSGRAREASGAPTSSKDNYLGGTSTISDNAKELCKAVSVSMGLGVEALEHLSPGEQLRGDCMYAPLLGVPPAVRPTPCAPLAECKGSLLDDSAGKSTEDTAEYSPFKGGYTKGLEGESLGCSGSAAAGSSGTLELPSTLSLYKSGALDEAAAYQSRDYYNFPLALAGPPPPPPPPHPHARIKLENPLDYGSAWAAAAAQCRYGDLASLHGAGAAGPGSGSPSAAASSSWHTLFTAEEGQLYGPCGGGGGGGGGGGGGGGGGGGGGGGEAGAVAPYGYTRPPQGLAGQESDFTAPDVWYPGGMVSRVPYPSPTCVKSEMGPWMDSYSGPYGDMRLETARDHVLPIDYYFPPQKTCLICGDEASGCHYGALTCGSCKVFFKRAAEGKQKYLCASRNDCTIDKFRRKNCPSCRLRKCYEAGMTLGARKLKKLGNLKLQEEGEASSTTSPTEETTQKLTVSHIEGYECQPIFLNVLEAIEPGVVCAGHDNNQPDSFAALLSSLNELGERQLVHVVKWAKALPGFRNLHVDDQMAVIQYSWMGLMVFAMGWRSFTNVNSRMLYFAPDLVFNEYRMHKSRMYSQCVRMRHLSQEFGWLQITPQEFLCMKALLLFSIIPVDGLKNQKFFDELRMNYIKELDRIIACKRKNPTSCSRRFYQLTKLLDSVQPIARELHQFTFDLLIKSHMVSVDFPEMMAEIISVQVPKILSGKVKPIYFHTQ
# UniProt P03372, whole entry, looked up: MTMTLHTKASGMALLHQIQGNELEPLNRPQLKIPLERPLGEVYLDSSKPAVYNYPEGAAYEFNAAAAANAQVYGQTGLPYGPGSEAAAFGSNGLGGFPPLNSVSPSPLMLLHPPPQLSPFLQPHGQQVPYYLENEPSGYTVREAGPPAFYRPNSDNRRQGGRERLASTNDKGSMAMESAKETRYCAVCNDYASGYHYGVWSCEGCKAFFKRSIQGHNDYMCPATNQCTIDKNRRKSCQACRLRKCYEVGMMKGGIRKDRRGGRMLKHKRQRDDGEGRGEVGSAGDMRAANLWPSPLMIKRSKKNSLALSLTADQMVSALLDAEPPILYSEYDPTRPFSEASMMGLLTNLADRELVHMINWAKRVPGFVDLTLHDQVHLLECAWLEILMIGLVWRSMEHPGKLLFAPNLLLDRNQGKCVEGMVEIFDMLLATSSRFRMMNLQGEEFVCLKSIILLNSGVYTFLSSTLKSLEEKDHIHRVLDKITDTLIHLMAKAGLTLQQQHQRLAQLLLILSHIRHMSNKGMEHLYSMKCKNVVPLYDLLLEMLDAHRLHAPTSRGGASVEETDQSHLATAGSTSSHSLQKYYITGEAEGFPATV
# Tests used:
# [1] = CCTE_Simmons_MITO_viability: CellTiter-Glo Viability Assessment for CCTE's HepG2 Seahorse XF Respirometric Screening Assay [post-hoc], Simmons Lab (AID 2284007);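 on AC50: cells exposed to chemical for 90 min before the ATP read; actives lower ATP signal relative to DMSO baseline meaning reduced viability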
# Method in brief: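 Post-hoc viability check on the HepG2 respirometry plates: luciferase-based ATP signal measured once, after 90 min compound exposure spanning 125 nM–100 uM final. Activity was referenced to DMSO as baseline.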
# [2] = target: Ratio of Nucleoli Translocation and Cytoplasm, AR (gene 367) (UniProt P10275); test: UPITT_HCI_U2OS_AR_TIF2_Nucleoli_Cytoplasm_Ratio_Antagonist: University of Pittsburgh U2OS Androgen Receptor-Transcriptional Intermediary Factor 2 (AR-TIF2) Antagonism High Content Imaging Assay for Ratio of Nucleoli Translocation and Cytoplasm (AID 2283999);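 further: antagonists lower the DHT-driven ratio of nucleolar to cytoplasmic red signal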
# Method in brief: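 This antagonist-mode endpoint tracks AR-RFP localisation, the nucleolus-to-cytoplasm intensity ratio, in TIF2-GFP-coexpressing U2OS cells. DMSO stays at or below 0.5%; testing spans 20 uM single-dose and 0.195–50 uM series, with DHT setting the activity baseline.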
# [3] = CCTE_Deisenroth_AIME_384WELL_CTox_Active: Cytotoxicity Assessment (CTOX) in CCTE's 384-well Estrogen Receptor Transactivation Assay with AIME metabolic competence (metabolism positive), Deisenroth Lab (AID 2284037);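 further: chemicals first conditioned 2 h by alginate-bound induced rat liver S9 before cells; activity means signal loss indicating cell death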
# Method in brief: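 Cytotoxicity in VM7Luc4E2 breast cells, 24 hour, measured as protease-substrate fluorescence loss, after 2-hour metabolic conditioning with induced rat hepatic S9 in alginate microspheres. Concentrations 0.002 - 200 uM, 10 points, bidirectional fitting.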
# [4] = target: Estrogen receptor (Homo sapiens) (UniProt P03372); test: CCTE_Deisenroth_AIME_384WELL_LUC_Inactive: CCTE's 384-well Estrogen Receptor Transactivation Assay without AIME metabolic competence (ERTA luciferase; metabolism negative), Deisenroth Lab (AID 2284038);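 further: hits raise estrogen receptor luciferase signal so potencies reflect agonists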
# Method in brief: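 Metabolism-negative mode: AIME lids stamped in alginate-water, no hepatic S9. 2 h chemical incubation → medium onto VM7Luc4E2 ERTA, 24 h. Readout luciferase luminescence; gain-of-signal fit vs 17beta-estradiol. Conc. 0.002 - 200 uM.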
# [5] = target: Ratio of Nucleoli Translocation and Cytoplasm, AR (gene 367) (UniProt P10275); test: UPITT_HCI_U2OS_AR_TIF2_Nucleoli_Cytoplasm_Ratio_Agonist: University of Pittsburgh U2OS Androgen Receptor-Transcriptional Intermediary Factor 2 (AR-TIF2) Agonism High Content Imaging Assay for Ratio of Nucleoli Translocation and Cytoplasm (AID 2284000);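 further: hits raise the red nucleolar to cytoplasm ratio above vehicle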
# Method in brief: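 Compounds tested at 20 uM final in primary screen (0.2% DMSO) and 0.195-50 uM final in dose-response (0.5% DMSO). Imaging of human U2OS cells bearing RFP-AR and GFP-TIF2; endpoint is nucleoli/cytoplasm red signal ratio, positive direction relative to DMSO.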
# [6] = CCTE_Deisenroth_AIME_384WELL_CTox_Inactive: Cytotoxicity Assessment (CTOX) in CCTE's 384-well Estrogen Receptor Transactivation Assay without AIME metabolic competence (metabolism negative), Deisenroth Lab (AID 2284039);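 further: cell viability via live-cell protease substrate cleaved to fluorescent probe; cells exposed 24 h to medium preincubated 2 h with alginate-water beads without S9; loss of fluorescence signal means loss of viability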
# Method in brief: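 VM7Luc4E2 human breast cells received conditioned medium from a 2 h incubation of chemical with alginate-water microspheres (no S9), then were exposed 24 h. Viability was read as protease-substrate cleavage to a fluorescent probe; loss of signal was fitted bidirectionally over 0.002–200 uM.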
# [7] = CCTE_Harrill_HTTr_CellCount_MCF7: CCTE's Cell Proliferation Assessment for the High-Throughput Transcriptomics (HTTr) Platform, Harrill Lab (AID 2284012);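 further: count of Hoechst-stained nuclei per well by high-content imaging in MCF-7 cells; cells exposed to compound for six hours; intended direction is loss of nuclei count meaning fewer cells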
# Method in brief: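 For this full-screen endpoint, MCF-7 cultures received eight compound dilutions for six hours. Well nuclei counts from Hoechst imaging were analyzed relative to DMSO.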
# [8] = CCTE_Shafer_MEA_acute_AB: CCTE's Alamar Blue Assay for Cytotoxicity in the Neural Acute Assay, Shafer Lab (AID 2284069);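 further: active compounds lower the viability signal compared with DMSO wells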
# Method in brief: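 Read-out: resazurin fluorescence (ex 544, em 590 nm) after CTB reagent at 1:6 dilution in fresh media. Cells: primary rat cortical neuron networks, DIV 13 or 15, chemically exposed on MEA plates; DMSO as negative control/baseline.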
# [9] = CCTE_Deisenroth_AIME_96WELL_CTox_Inactive: Cytotoxicity Assessment (CTOX) in CCTE's 96-well Estrogen Receptor Transactivation Assay without AIME metabolic competence (metabolism negative), Deisenroth Lab (AID 2284029)
# Method in brief: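 Cytotoxicity in VM7Luc4E2 breast cells was scored as loss of fluorescent signal from a live-cell protease substrate 24 h after exposure, using bidirectional curve fitting. Test media came from a 2 h metabolism-negative pre-incubation (alginate-water, no hepatic S9) of compounds at 0.002-200 uM, with at least four replicates.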
# [10] = CCTE_Shafer_MEA_dev_LDH: CCTE's Lactate Dehydrogenase Assay for Cytotoxicity in the Neural Network Formation Assay, Shafer Lab (AID 2284068);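 further: exposure for twelve days from plating with re-dosing on DIV 5 and 9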
# Method in brief: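 Rat cortical primary neurons, MEA culture; dosing day 0–12, full medium plus compound exchange DIV 5, 9. Read-out: LDH enzyme activity, spectrophotometric. DMSO = negative control/baseline; signal loss → cytotoxicity.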
# [11] = CCTE_Deisenroth_AIME_96WELL_CTox_Active: Cytotoxicity Assessment (CTOX) in CCTE's 96-well Estrogen Receptor Transactivation Assay with AIME metabolic competence (metabolism positive), Deisenroth Lab (AID 2284028)
# Method in brief: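 Cytotoxicity in VM7Luc4E2 breast cells after 24 h exposure to medium from a 2 h metabolic pre-incubation with induced rat hepatic S9 in alginate microspheres; fluorescent live-cell protease readout, 10-point series 0.002–200 uM, n=4.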
structure (smiles),measurement,setting,value
CCOC(=O)COc1ccc2c(c1)CC(NCC(O)c1cccc(Cl)c1)CC2 (stereo unspecified),AC50,[1],inconclusive: 11900 nM
Nc1nc(=S)c2[nH]cnc2[nH]1,AC50,[2],inconclusive: 50 µM
same,outcome,[3],inactive
same,AC50,[4],inconclusive: 53.9 µM
CC(C)OC(=O)C(C)(C)Oc1ccc(C(=O)c2ccc(Cl)cc2)cc1,AC50,[5],inconclusive: 50 µM
same,AC50,[1],inconclusive: 12.5 nM
same,outcome,[3],inactive
same,outcome,[6],inactive
COc1ccc(S(=O)(=O)N2C(=O)[C@@](c3ccccc3OC)(N3C[C@H](O)C[C@H]3C(=O)N(C)C)c3cc(Cl)ccc32)c(OC)c1,AC50,[1],inconclusive: 290 nM
same,AC50,[7],inconclusive: 50 µM
COc1ccc2sc(C(=O)Nc3nnn[nH]3)c(OC(C)C)c2c1,AC50,[1],inconclusive: 92.9 nM
same,AC50,[3],active: 45000 nM
same,AC50,[4],inconclusive: 32.8 µM
OCCN1CCNCC1,AC50,[7],inconclusive: 0.264 µM
CCCCCCCCOc1ccc(C(=O)c2ccccc2)c(O)c1,AC50,[7],inconclusive: 50 µM
NCc1cccc(C2CCN(C(=O)c3ccc(C#Cc4ccccc4F)o3)CC2)c1,AC50,[5],active: 50 µM
same,outcome,[8],inactive
CNC(=O)[C@H]1O[C@@H](n2cnc3c(NCc4cc(Cl)ccc4OCc4cc(C)no4)ncnc32)[C@H](O)[C@@H]1N,outcome,[5],inactive
same,outcome,[3],inactive
same,AC50,[6],inconclusive: 100000 nM
CCCCCCCCCc1ccc(OCCO)cc1,AC50,[5],active: 75.5 µM
same,outcome,[7],inactive
O=c1cc(-c2ccccc2)oc2ccccc12,AC50,[5],inconclusive: 49.5 µM
same,AC50,[7],inconclusive: 50 µM
CCCCCCCC/C=C\CCCCCCCC(=O)O,outcome,[7],inactive
C[C@]12CC[C@@H]3c4ccc(O)cc4CC[C@H]3[C@@H]1CC[C@H]2O,outcome,[1],inactive
same,AC50,[3],inconclusive: 0.874 nM
CN(C)c1ccc(N=Nc2ccccc2C(=O)O)cc1,outcome,[7],inactive
Cc1nn(C)c(Oc2ccccc2)c1C=NOCc1ccc(C(=O)OC(C)(C)C)cc1,AC50,[5],inconclusive: 50 µM
same,AC50,[4],inconclusive: 1.23 µM
CN(C)C(=O)C1(N2CCCCC2)CCN(CC[C@@]2(c3ccc(Cl)c(Cl)c3)CN(C(=O)c3ccccc3)CCO2)CC1,AC50,[1],inconclusive: 52 nM
same,outcome,[7],inactive
C[C@]12CC[C@@H]3c4ccc(O)cc4CC[C@H]3[C@@H]1CC[C@@H]2O,AC50,[7],inconclusive: 0.74 µM
same,outcome,[9],inactive
same,AC50,[10],inconclusive: 93.1 nM
CC(C)(C)C1CCCCC1O (stereo unspecified),outcome,[7],inactive
CCCCCCCCCC=O,AC50,[7],inconclusive: 9.92 µM
same,AC50,[3],inconclusive: 0.2 nM
same,AC50,[6],inconclusive: 0.199 nM
O=c1ccc2ccccc2o1,outcome,[7],inactive
same,AC50,[11],inconclusive: 100 µM
same,AC50,[9],inconclusive: 155 µM
O=C1CCC(C2CCCCC2)CC1,outcome,[7],inactive
same,AC50,[3],inconclusive: 1.5 nM
same,AC50,[6],inconclusive: 1.65 nM
CCCCOC(=O)CCCCCCCCC(=O)OCCCC,AC50,[7],inconclusive: 50 µM
same,outcome,[3],inactive
Clc1cc(Cl)c2c(c1)N=C1CCCCCN1C2,outcome,[7],inactive
COc1cccc([C@H](O)C2CCN(CCc3ccc(F)cc3)CC2)c1OC,AC50,[7],inconclusive: 50 µM
same,AC50,[3],inconclusive: 1.05 nM
same,AC50,[6],inconclusive: 100000 nM
C1=Cc2ccccc2C1,outcome,[7],inactive
CC[C@H](NC(=O)c1cc(F)ccc1NS(=O)(=O)c1cccc2cccnc12)c1ccccc1,AC50,[7],inconclusive: 42.5 µM
same,outcome,[3],inactive
same,AC50,[4],inconclusive: 184 µM
O=C(O)c1[nH]n(-c2ccc(S(=O)(=O)O)cc2)c(=O)c1N=Nc1ccc(S(=O)(=O)O)cc1,AC50,[7],inconclusive: 45 µM
same,AC50,[3],active: 100000 nM
same,AC50,[6],active: 100000 nM
c1ccc2cc3c(ccc4ccccc43)cc2c1,AC50,[7],inconclusive: 50 µM
same,outcome,[9],inactive
same,AC50,[3],inconclusive: 39500 nM
CN1CCN(c2ccccc2/C=C2\SCCN(c3ccc(Cl)c(Cl)c3)C2=O)CC1,AC50,[7],active: 77.1 µM
NC1CCCCC1,outcome,[7],inactive
same,AC50,[3],inconclusive: 0.2 nM
same,AC50,[6],inconclusive: 1.99 nM
CCCCCCC(CCCCCCCCCCC(=O)OCC(COC(C)=O)OC(C)=O)OC(C)=O (stereo unspecified),AC50,[7],inconclusive: 25 µM
same,AC50,[3],inconclusive: 0.2 nM
Cc1ccc(O)c(-n2nc3ccccc3n2)c1,outcome,[7],inactive
same,outcome,[9],inactive
same,AC50,[3],inconclusive: 0.2 nM
same,AC50,[6],inconclusive: 0.2 nM
N#Cc1ccc(C2CCCc3cncn32)cc1 (stereo unspecified),AC50,[7],inconclusive: 25 µM
CC(C)=CCCC(C)CCO (stereo unspecified),outcome,[7],inactive
CCCCOCCOCCOCCO,AC50,[7],inconclusive: 50 µM
same,AC50,[3],inconclusive: 0.2 nM
same,AC50,[6],inconclusive: 0.2 nM

# Rewritten as tab-separated lines: entries from further up.
structure (smiles)	measurement	setting	value
CNC(=O)[C@H]1O[C@@H](n2cnc3c(NCc4cc(Cl)ccc4OCc4cc(C)no4)ncnc32)[C@H](O)[C@@H]1N	AC50	[6]	inconclusive: 100000 nM
CCCCCCCCCc1ccc(OCCO)cc1	AC50	[5]	active: 75.5 µM
same	outcome	[7]	inactive
O=c1cc(-c2ccccc2)oc2ccccc12	AC50	[5]	inconclusive: 49.5 µM

# — PubChem BioAssay (EPA / NIEHS)
